We go through 6 molecules from paper PMC8207686.

The chains behind the UniProt entries cited, without tags or fusion partners.
UniProt Q9LN63: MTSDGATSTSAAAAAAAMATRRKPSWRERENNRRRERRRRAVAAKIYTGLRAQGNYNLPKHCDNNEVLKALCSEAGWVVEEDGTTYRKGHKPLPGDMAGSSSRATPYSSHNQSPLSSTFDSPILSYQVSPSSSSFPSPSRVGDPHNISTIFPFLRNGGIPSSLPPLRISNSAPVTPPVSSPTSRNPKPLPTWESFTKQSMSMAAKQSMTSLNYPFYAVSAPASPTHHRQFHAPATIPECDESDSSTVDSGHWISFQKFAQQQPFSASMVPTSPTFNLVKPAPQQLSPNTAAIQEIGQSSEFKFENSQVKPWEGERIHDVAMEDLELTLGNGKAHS

Where two headings read alike, the source gives them in different places. These are yes or no findings as the source states them, for the method shown. For some assays here: In cells and extracts the contact can be indirect. Some results given as binding are weak or reduced against the parent protein; the word gives no strength. Where a sequence is shown, tags or fusion partners need not be part of it.

For assay [1], the target named is T1, BRASSINOSTEROIDS AT VASCULAR AND ORGANIZING CENTER (BRAVO), fluorescent fusion for FRET-FLIM (Arabidopsis thaliana) (UniProt Q6R053).
T1 sequence: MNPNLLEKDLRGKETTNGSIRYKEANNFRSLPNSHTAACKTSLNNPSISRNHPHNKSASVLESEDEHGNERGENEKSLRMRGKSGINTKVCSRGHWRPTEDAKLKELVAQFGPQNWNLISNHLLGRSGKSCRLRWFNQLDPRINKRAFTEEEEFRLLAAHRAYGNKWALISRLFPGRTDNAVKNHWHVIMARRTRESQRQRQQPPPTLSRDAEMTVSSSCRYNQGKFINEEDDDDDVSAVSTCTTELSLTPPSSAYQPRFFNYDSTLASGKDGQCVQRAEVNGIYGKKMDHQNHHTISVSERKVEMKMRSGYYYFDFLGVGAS
Kind of assay: FRET or BRET; FRET-FLIM: donor fluorescence lifetime measured in nuclei of transiently expressing Nicotiana benthamiana leaf epidermal cells; fusion proteins tagged with mVenus or mCherry, induced with ß-estradiol; double-exponential fit of the intensity-weighted average lifetime. For orientation: BRET reads energy transfer from a luciferase to a nearby fluorophore.

Assay [2] deals with T2, WUSCHEL RELATED HOMEOBOX 5 (WOX5), fluorescent fusion for FRET-FLIM (Arabidopsis thaliana) (UniProt Q8H1D2).
T2 sequence: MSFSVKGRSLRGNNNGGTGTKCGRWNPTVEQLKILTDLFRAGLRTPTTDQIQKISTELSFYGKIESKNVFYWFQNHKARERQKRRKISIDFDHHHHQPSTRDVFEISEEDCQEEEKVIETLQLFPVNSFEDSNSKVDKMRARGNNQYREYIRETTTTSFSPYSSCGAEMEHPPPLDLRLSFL
The description is as above.

Assay [3] has as its target T3, BRAVO, yeast two-hybrid fusion (Arabidopsis thaliana) (UniProt Q6R053).
T3 sequence: T1 sequence
Kind of assay: two-hybrid; GAL4-based yeast two-hybrid (Clontech), strain AH109; interaction assessed by growth on SD-LWH plates after 4 days at 30°C.

The target in assay [4] is T1, BRASSINOSTEROIDS AT VASCULAR AND ORGANIZING CENTER (BRAVO), fluorescent fusion for FRET-FLIM (Arabidopsis thaliana). Kind of assay: FRET or BRET; FRET-FLIM: donor fluorescence lifetime measured in nuclei of transiently expressing Nicotiana benthamiana leaf epidermal cells; fusion proteins tagged with mVenus or mCherry, induced with ß-estradiol; double-exponential fit of the intensity-weighted average lifetime. The source holds these as a separate data set.

For assay [5], the target named is T2, WUSCHEL RELATED HOMEOBOX 5 (WOX5), fluorescent fusion for FRET-FLIM (Arabidopsis thaliana). The description is as above. This is another data set of the same source.

Take “BRI1‐EMS‐SUPPRESSOR 1 (BES1), fluorescent fusion for FRET-FLIM (from UniProt Q9LN63 1-335)”: the binding result in assay [1] and in assay [2] was “binds” in each case.

B1: TOPLESS (TPL), yeast two-hybrid fusion (protein, UniProt Q94AI7 1-1131)
chain: MSSLSRELVFLILQFLDEEKFKETVHKLEQESGFFFNMKYFEDEVHNGNWDEVEKYLSGFTKVDDNRYSMKIFFEIRKQKYLEALDKHDRPKAVDILVKDLKVFSTFNEELFKEITQLLTLENFRENEQLSKYGDTKSARAIMLVELKKLIEANPLFRDKLQFPTLRNSRLRTLINQSLNWQHQLCKNPRPNPDIKTLFVDHSCGPPNGARAPSPVNNPLLGGIPKAGGFPPLGAHGPFQPTASPVPTPLAGWMSSPSSVPHPAVSAGAIALGGPSIPAALKHPRTPPTNASLDYPSADSEHVSKRTRPMGISDEVNLGVNMLPMSFSGQAHGHSPAFKAPDDLPKTVARTLSQGSSPMSMDFHPIKQTLLLVGTNVGDIGLWEVGSRERLVQKTFKVWDLSKCSMPLQAALVKEPVVSVNRVIWSPDGSLFGVAYSRHIVQLYSYHGGEDMRQHLEIDAHVGGVNDISFSTPNKQLCVITCGDDKTIKVWDAATGVKRHTFEGHEAPVYSVCPHYKENIQFIFSTALDGKIKAWLYDNMGSRVDYDAPGRWCTTMAYSADGTRLFSCGTSKDGESFIVEWNESEGAVKRTYQGFHKRSLGVVQFDTTKNRYLAAGDDFSIKFWDMDAVQLLTAIDGDGGLQASPRIRFNKEGSLLAVSGNENVIKIMANSDGLRLLHTFENISSESSKPAINSIAAAAAAAATSAGHADRSANVVSIQGMNGDSRNMVDVKPVITEESNDKSKIWKLTEVSEPSQCRSLRLPENLRVAKISRLIFTNSGNAILALASNAIHLLWKWQRNERNATGKATASLPPQQWQPASGILMTNDVAETNPEEAVPCFALSKNDSYVMSASGGKISLFNMMTFKTMATFMPPPPAATFLAFHPQDNNIIAIGMDDSTIQIYNVRVDEVKSKLKGHSKRITGLAFSNVLNVLVSSGADAQLCVWNTDGWEKQRSKVLPLPQGRPNSAPSDTRVQFHQDQAHFLVVHETQLAIYETTKLECMKQWAVRESLAPITHATFSCDSQLVYASFMDATVCVFSSANLRLRCRVNPSAYLPASLSNSNVHPLVIAAHPQEPNMFAVGLSDGGVHIFEPLESEGKWGVAPPAENGSASGAPTAPSVGASASDQPQR
Regarding B1, in assay [3], the binding entry is listed as “binds”.

B2: TOPLESS (TPL), fluorescent fusion for FRET-FLIM (protein, UniProt Q94AI7 1-1131)
chain: B1 chain
Consider B2, for which the binding result in assay [4] and in assay [5] was “binds” each time.

B3: WUSCHEL RELATED HOMEOBOX 5 (WOX5), fluorescent fusion for FRET-FLIM (protein, UniProt Q8H1D2 1-182)
chain: T2 sequence
Take B3: the binding entry in assay [4] is “binds”.

B4: WOX5, yeast two-hybrid fusion (protein, UniProt Q8H1D2 1-182)
chain: T2 sequence
For the molecule B4, the binding entry in assay [3] is “binds”.

B5: BRASSINOSTEROIDS AT VASCULAR AND ORGANIZING CENTER (BRAVO), fluorescent fusion for FRET-FLIM (protein, UniProt Q6R053 1-323)
chain: T1 sequence
Turning to B5, the binding entry in assay [5] is given as “binds”.
